Record: PubChem BioAssay AID1259405 (NCATS, 2018)
Screen: 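Mouse-designed siRNAs used to find CHO productivity engineering targets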 (primary screen). Cells: Chinese hamster CHO-K1 ovary cells with stable secreted eGFP expression. Reagents: single siRNA against mouse genes, 0.8 pmol siRNA per well (2 µl of 400 nM stock). Timing: 3 days. Read-out: 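Percent of the per-plate non-targeting control median for intracellular GFP per well by laser scanning cytometry and for cell viability by ATP luminescence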. Reading the numbers: GFP, % of control: higher = more GFP per well, higher productivity; viability (ATP), % of control: higher = more viable cells (more ATP). Hit rule: 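a knock-down is called active if GFP reaches 120% or more of non-targeting control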.
The deposit covers about 50,000 reagents; below is a part drawn at random. Of all reagents, about 4,000 (8%) are marked active. 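Mouse siRNA library applied to hamster cells; one well for each siRNA.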

Target gene,PubChem SID,"GFP, % of control","viability (ATP), % of control",activity call
Cct4 (chaperonin containing TCP1 subunit 4),SID363572779,137,80.4,active
Cct4 (chaperonin containing TCP1 subunit 4),SID363578059,88,100,inactive
Cct4 (chaperonin containing TCP1 subunit 4),SID363582283,72.7,109,inactive
"Pip4p2 (phosphatidylinositol-4,5-bisphosphate 4-phosphatase 2)",SID363543816,94.9,105,inactive
"Pip4p2 (phosphatidylinositol-4,5-bisphosphate 4-phosphatase 2)",SID363551552,196,92.6,active
"Pip4p2 (phosphatidylinositol-4,5-bisphosphate 4-phosphatase 2)",SID363559157,72.6,76.2,inactive
Vmn1r220 (vomeronasal 1 receptor 220),SID363556578,46.5,52.1,inactive
Vmn1r220 (vomeronasal 1 receptor 220),SID363563482,69.2,78.8,inactive
Vmn1r220 (vomeronasal 1 receptor 220),SID363587028,60.8,75.3,inactive
Septin5 (septin 5),SID363541585,68.8,79.9,inactive
Septin5 (septin 5),SID363553177,113,103,inactive
Septin5 (septin 5),SID363566501,73.1,63.9,inactive
Pclaf (PCNA clamp associated factor),SID363543836,40.8,65.5,inactive
Pclaf (PCNA clamp associated factor),SID363551572,60.8,60.2,inactive
Pclaf (PCNA clamp associated factor),SID363559177,61.7,59.8,inactive
Or5ac24 (olfactory receptor family 5 subfamily AC member 24),SID363554421,106,83.2,inactive
Or5ac24 (olfactory receptor family 5 subfamily AC member 24),SID363567868,62.5,78.2,inactive
Or5ac24 (olfactory receptor family 5 subfamily AC member 24),SID363585225,60.1,98.6,inactive
Scamp2,SID363545741,84.9,92.8,inactive
Scamp2,SID363549254,68.6,83,inactive
Scamp2,SID363563060,56.8,58.4,inactive
Or2h1b (olfactory receptor family 2 subfamily H member 1B),SID363554755,85.7,78.1,inactive
Or2h1b (olfactory receptor family 2 subfamily H member 1B),SID363568202,103,76,inactive
Or2h1b (olfactory receptor family 2 subfamily H member 1B),SID363586261,80,94.1,inactive
Pdcd10 (programmed cell death 10),SID363554762,78.6,101,inactive
Pdcd10 (programmed cell death 10),SID363568209,54.8,69.5,inactive
Pdcd10 (programmed cell death 10),SID363586268,125,70.6,active
"Prkce (protein kinase C, epsilon)",SID363569860,52,67.9,inactive
"Prkce (protein kinase C, epsilon)",SID363576900,54.7,60.7,inactive
"Prkce (protein kinase C, epsilon)",SID363578308,42.6,29.4,inactive
Fbxl5 (F-box and leucine-rich repeat protein 5),SID363539987,42.9,51,inactive
Fbxl5 (F-box and leucine-rich repeat protein 5),SID363561288,71.6,83.9,inactive
Fbxl5 (F-box and leucine-rich repeat protein 5),SID363564324,92.3,85.7,inactive
Hpgd (hydroxyprostaglandin dehydrogenase 15 (NAD)),SID363575071,76.7,72.3,inactive
Hpgd (hydroxyprostaglandin dehydrogenase 15 (NAD)),SID363580703,53.4,50.9,inactive
Hpgd (hydroxyprostaglandin dehydrogenase 15 (NAD)),SID363582815,92.3,73.2,inactive
Ccar1 (cell division cycle and apoptosis regulator 1),SID363582674,74.4,90.3,inactive
Ccar1 (cell division cycle and apoptosis regulator 1),SID363584434,48.7,69.5,inactive
Spmap2l (sperm microtubule associated protein 2 like),SID363543509,88.1,66.3,inactive
Spmap2l (sperm microtubule associated protein 2 like),SID363553002,129,62.8,active
Spmap2l (sperm microtubule associated protein 2 like),SID363558850,74.1,97.7,inactive
Nexn (nexilin),SID363562215,62.4,38,inactive
Nexn (nexilin),SID363567353,96.5,92.9,inactive
Nexn (nexilin),SID363584710,97.1,77.5,inactive
Mdga2 (MAM domain containing glycosylphosphatidylinositol anchor 2),SID363562375,122,89,active
Mdga2 (MAM domain containing glycosylphosphatidylinositol anchor 2),SID363567513,78.7,97,inactive
Mdga2 (MAM domain containing glycosylphosphatidylinositol anchor 2),SID363584870,41,64.1,inactive
Gtsf2 (gametocyte specific factor 2),SID363546978,74.7,87.8,inactive
Gtsf2 (gametocyte specific factor 2),SID363549790,76.1,79.1,inactive
Gtsf2 (gametocyte specific factor 2),SID363587844,116,121,inactive
"Serpinb9g (serine (or cysteine) peptidase inhibitor, clade B, member 9g)",SID363555423,78.4,88,inactive
"Serpinb9g (serine (or cysteine) peptidase inhibitor, clade B, member 9g)",SID363564084,36.5,52.7,inactive
"Serpinb9g (serine (or cysteine) peptidase inhibitor, clade B, member 9g)",SID363587630,104,111,inactive
Aptx (aprataxin),SID363546001,44.3,56.2,inactive
Aptx (aprataxin),SID363549514,64.5,72.7,inactive
Aptx (aprataxin),SID363563320,57.5,60.2,inactive
B3gnt2,SID363545288,130,83.6,active
B3gnt2,SID363548801,53.3,73.8,inactive
B3gnt2,SID363562607,54.6,55.3,inactive
Rpa1 (replication protein A1),SID363569178,75.3,97.2,inactive
Rpa1 (replication protein A1),SID363583610,104,118,inactive
Cux1 (cut-like homeobox 1),SID363555353,40.5,87.6,inactive
Cux1 (cut-like homeobox 1),SID363564014,75.9,47.1,inactive
Cux1 (cut-like homeobox 1),SID363587560,112,109,inactive
Sfpq,SID363569275,119,109,inactive
Sfpq,SID363583707,69,87.6,inactive
Phaf1 (phagosome assembly factor 1),SID363539499,99.2,115,inactive
Phaf1 (phagosome assembly factor 1),SID363560800,82.2,86.4,inactive
Phaf1 (phagosome assembly factor 1),SID363564890,121,82.9,active
Abhd12 (abhydrolase domain containing 12),SID363552247,76.7,74.2,inactive
Abhd12 (abhydrolase domain containing 12),SID363585383,134,89.7,active
Abhd12 (abhydrolase domain containing 12),SID363585734,121,118,active
"Kcnj8 (potassium inwardly-rectifying channel, subfamily J, member 8)",SID363574870,88,94.6,inactive
"Kcnj8 (potassium inwardly-rectifying channel, subfamily J, member 8)",SID363575926,116,89.1,inactive
"Kcnj8 (potassium inwardly-rectifying channel, subfamily J, member 8)",SID363580502,85.9,90.2,inactive
Or8b56 (olfactory receptor family 8 subfamily B member 56),SID363554746,72.7,87.7,inactive
Or8b56 (olfactory receptor family 8 subfamily B member 56),SID363568193,93.7,39,inactive
Or8b56 (olfactory receptor family 8 subfamily B member 56),SID363586252,97.3,83.4,inactive
Btbd17 (BTB domain containing 17),SID363540643,79.3,90.3,inactive
Btbd17 (BTB domain containing 17),SID363543094,73.6,91.6,inactive
Btbd17 (BTB domain containing 17),SID363552587,56.3,65.2,inactive
Cdipt (CDP-diacylglycerol--inositol 3-phosphatidyltransferase),SID363570419,135,108,active
Cdipt (CDP-diacylglycerol--inositol 3-phosphatidyltransferase),SID363579219,75.6,116,inactive
Cdipt (CDP-diacylglycerol--inositol 3-phosphatidyltransferase),SID363583091,116,95.1,inactive
